# According to publication PMC7819943, “Rice protein-binding microarrays: a tool to detect cis-acting elements near promoter regions in rice”:
# Protein sequences, listed by entry. Tags and fused reporters are not part of them.
# UniProt Q0JBA9, entry or part of it: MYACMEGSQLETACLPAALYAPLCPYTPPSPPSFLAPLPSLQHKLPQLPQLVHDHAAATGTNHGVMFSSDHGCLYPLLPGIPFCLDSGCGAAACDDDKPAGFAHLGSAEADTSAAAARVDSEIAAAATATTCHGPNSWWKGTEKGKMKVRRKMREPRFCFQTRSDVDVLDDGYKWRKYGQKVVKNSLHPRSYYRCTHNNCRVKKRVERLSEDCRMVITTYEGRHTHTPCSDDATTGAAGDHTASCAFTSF
# The other results are listed elsewhere or left out.
# Target: OsWRKY34 (Oryza sativa, UniProt Q0JBA9 1-250)
# Experiment: protein-binding microarray (RPBM); PBS, 2% BSA, 51.3 ng/ul salmon testes DNA, 50 uM zinc acetate, 200 nM TF, 25 C, 1 h; high values mean tight binding
# Settings: protein: recombinant; tags: N-terminal polyhistidine and DsRed monomer fusion (pET32a); label: CyDye5-dUTP incorporated in the synthesized complementary strand; 3' TTTTT single-stranded linker to array surface; dsDNA, one strand shown
# In short: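 Binding signal here means per-feature fluorescence intensity in arbitrary units. The values were read on an Axon 4000B scanner after a custom Agilent array, double-stranded by primer extension with Cy5-dUTP, was incubated with 200 nM protein at 25 °C for 1 h in PBS with 2% BSA, salmon testes DNA and 50 µM zinc acetate, then washed. The proteins were transcription factors with an N-terminal polyhistidine tag and DsRed, expressed in E. coli BL21-CodonPlus and purified on Ni–NTA.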
row,Sequence,binding signal
1,TACCTCATTCCCTAAATGTTTGACGCCGTTGACTTTTTTACGGAGTCACCTAGTGCAG,17500 fluorescence intensity (a.u.)
2,TGCTTCACACTCACTCAAGCACAAAAATTTTCACCCCATCCGGAGTCACCTAGTGCAG,8700 fluorescence intensity (a.u.)
3,CATTCTAGCATTTCTCACATTCACATTGATATTAATTAATCGGAGTCACCTAGTGCAG,8440 fluorescence intensity (a.u.)
4,GTTAACTTTTGGTAGTTGCAGGGGTTCTATAGGTGGGCAGCGGAGTCACCTAGTGCAG,8640 fluorescence intensity (a.u.)
5,CCTCCTCGTCATGATCGTCGTGCAGCGGCAGTTCGCCTTCCGGAGTCACCTAGTGCAG,9180 fluorescence intensity (a.u.)
6,TCATCTTCACTTCAGTCTCAGCTCAAAAACTTTTGACACTCGGAGTCACCTAGTGCAG,9030 fluorescence intensity (a.u.)
7,TTATCCTCTTGCTCTTGCCTGCCATTGCGCGCCCAGGTTACGGAGTCACCTAGTGCAG,10700 fluorescence intensity (a.u.)
8,TTCAAATTTTTCCGTCCTCCTTTTGCATGTCCCTGTTTGACGGAGTCACCTAGTGCAG,10800 fluorescence intensity (a.u.)
9,ATAAATTTTCGTTACCGTATTCACGCCGGTTCGTTTTCACCGGAGTCACCTAGTGCAG,10200 fluorescence intensity (a.u.)
10,TCTCCAGCTTTTTTCTGTTCCTCTGGTCTTGATTCTTGAACGGAGTCACCTAGTGCAG,18200 fluorescence intensity (a.u.)
11,ACCTGCTTCCTTAATTAACTCCTTTCCGTCCTTTGTACTTCGGAGTCACCTAGTGCAG,8370 fluorescence intensity (a.u.)
12,AAAACCCAATTAGTCATACATTATTACCACATCGTTTTACCGGAGTCACCTAGTGCAG,8340 fluorescence intensity (a.u.)
13,ATCGGACAATTACCTGGGCTCTATCTATCATCTCTTCTACCGGAGTCACCTAGTGCAG,13300 fluorescence intensity (a.u.)
14,TTCACTTTAGGTCCCTCTACTTGACGCCCAGTCTGATTTTCGGAGTCACCTAGTGCAG,8180 fluorescence intensity (a.u.)
15,CTCCACGGCTCCACGGCTCCACGCCTCTTCCACCTCGTCGCGGAGTCACCTAGTGCAG,8270 fluorescence intensity (a.u.)
16,ATCATTATCCTCTCACCCTGTGTCACTCTCTCGTTCTTTCCGGAGTCACCTAGTGCAG,10000 fluorescence intensity (a.u.)
17,GCGCCACCGCGTCTACTGCCGCCGCCGCCGCCGCGTCCACCGGAGTCACCTAGTGCAG,8480 fluorescence intensity (a.u.)
18,GAATAAACCCTAACCTGGCCCTTATCATTATGCGTCGGAGCGGAGTCACCTAGTGCAG,8100 fluorescence intensity (a.u.)
19,AATCGTTTTGTTTGTTTGTTTTTTTATTGGCATTAGGGCCCGGAGTCACCTAGTGCAG,12000 fluorescence intensity (a.u.)
20,AGTACCCTTGCTCGATCCCTACTGGTTGACTGACTTGTAACGGAGTCACCTAGTGCAG,10700 fluorescence intensity (a.u.)
21,GTGTTTGGTTGAGAGGCGAATGGGATGGGTTGGTCCCTGGCGGAGTCACCTAGTGCAG,8080 fluorescence intensity (a.u.)

row,Sequence,binding signal
1,TGTGCATGTCCACGTGTTATCGCTTTCCTCACAATTCATCCGGAGTCACCTAGTGCAG,14100 fluorescence intensity (a.u.)
2,GTTTGTCCCTTTTGACATATGAACTCTTCTCCATGATTTCCGGAGTCACCTAGTGCAG,8060 fluorescence intensity (a.u.)
3,GCTATAAGTAGCTCCAGCATCAACTCCTAGCTTCACAGCCCGGAGTCACCTAGTGCAG,8030 fluorescence intensity (a.u.)
4,CTCACATGTTGAACATCTCCCTGTACTTACTGACAAGTGACGGAGTCACCTAGTGCAG,8480 fluorescence intensity (a.u.)
5,GGTTCTTGCCTCTTTCTTTGAGGACTCGCCCGCCCAACAGCGGAGTCACCTAGTGCAG,9980 fluorescence intensity (a.u.)
6,TTGGTTCGGTCGCTCCGTTCCTCCGGCTTCCGCCTTTCCTCGGAGTCACCTAGTGCAG,9410 fluorescence intensity (a.u.)
7,TCTCATGGTCTTTCTCGATGGGTAGGATGCGTTCTTTATTCGGAGTCACCTAGTGCAG,8220 fluorescence intensity (a.u.)
8,TCTTCCGCCGCTACTGCCGCCACCGCCACCTCCGCCTCCACGGAGTCACCTAGTGCAG,10200 fluorescence intensity (a.u.)
9,AACATCGCACACTGCCCTTGCAATTCACAACTATTTATATCGGAGTCACCTAGTGCAG,8970 fluorescence intensity (a.u.)
10,GTCGTTCTGTCCGGTTTTCTGGTTGAGGGGTACGAATTAGCGGAGTCACCTAGTGCAG,9020 fluorescence intensity (a.u.)
11,TCCATGGTCTTCTTCCGTTCGCCCTCGCTTTCTTCCCGCACGGAGTCACCTAGTGCAG,12700 fluorescence intensity (a.u.)
12,ACCCAATTCTACTTACTGGCTACTAATCTGAATCAAATTTCGGAGTCACCTAGTGCAG,9440 fluorescence intensity (a.u.)
13,TCTCTCTCTCTCTCTCTCTCTGCTGCACTACTAGCTAGCTCGGAGTCACCTAGTGCAG,9910 fluorescence intensity (a.u.)
14,GGAGAGGATGTAGGTTGAGTTTTTTTTTGGGACGGAGGGACGGAGTCACCTAGTGCAG,10800 fluorescence intensity (a.u.)
15,TGCTGGTTCTGCTCCTTCGCTGTTTAGACGCGTAATCCGCCGGAGTCACCTAGTGCAG,8660 fluorescence intensity (a.u.)
16,GATGACCAGATGTTTTGCTTTTTTCCTCGTATTTTTCTAGCGGAGTCACCTAGTGCAG,8050 fluorescence intensity (a.u.)
17,GCACACAAGCAAGCGGCCTCATCTGTTTTATTGTTTTTCTCGGAGTCACCTAGTGCAG,9580 fluorescence intensity (a.u.)
18,CACAACTTTTCGTTTTTTATATTTGCACAAATTTTTTAATCGGAGTCACCTAGTGCAG,8650 fluorescence intensity (a.u.)
19,CCGCTTCGTCTCTCTCTCTCTCTCGCTTTCCTCTCTTATACGGAGTCACCTAGTGCAG,12300 fluorescence intensity (a.u.)
20,ATTTTATTTTTTTTCCTTTTGTGCTCGACAGGGTTGTATTCGGAGTCACCTAGTGCAG,8630 fluorescence intensity (a.u.)
21,ACCTGTTAACCTGTGCAAGATGGTTGCTACTATACTACTGCGGAGTCACCTAGTGCAG,8870 fluorescence intensity (a.u.)

row,Sequence,binding signal
1,AGGGAATTTCCCGTTCTTGCGCTCCTGGATTTCTTGCCCACGGAGTCACCTAGTGCAG,9560 fluorescence intensity (a.u.)
2,GGTAGCAGAGGAACTCTTCTTGCTGTTGCTAATTCTGGGGCGGAGTCACCTAGTGCAG,10200 fluorescence intensity (a.u.)
3,CCAGAGCGCCGATTTTTTTTTTATTCCTTGTTTCCCGATTCGGAGTCACCTAGTGCAG,8840 fluorescence intensity (a.u.)
4,TATTATTCGTCAGAAGTTTTGTCCAAGTTTCTTTGTTCTTCGGAGTCACCTAGTGCAG,9840 fluorescence intensity (a.u.)
5,TGTCTGAATGCACTGATACACATCTACCCATAGTACTATACGGAGTCACCTAGTGCAG,8860 fluorescence intensity (a.u.)
6,TCTTTCATATGTTCTTTATGTTTTTGACTCACGCGTATTACGGAGTCACCTAGTGCAG,10500 fluorescence intensity (a.u.)
7,GCCCGCCGCTCCACCCACCGCCGTCGCGTCGGCCGTCGCCCGGAGTCACCTAGTGCAG,8660 fluorescence intensity (a.u.)
8,CGTCTGCAGTTTTATTCCTTACCTCGTTGCTCGGAGGCAACGGAGTCACCTAGTGCAG,10900 fluorescence intensity (a.u.)
9,CTTCCTTGTCGTGCCGTGCGAGGTCCCCTTCCGTGAAGTACGGAGTCACCTAGTGCAG,9350 fluorescence intensity (a.u.)
10,CATACTGTTCCACTCGCCCTCGTTTTCTCCGCCACCGAGCCGGAGTCACCTAGTGCAG,8450 fluorescence intensity (a.u.)
11,AGAGGAGAGGAGGGTTCAGATGTGGTGGGTCTATATAGCGCGGAGTCACCTAGTGCAG,9610 fluorescence intensity (a.u.)
12,TGCACCATTTTGCCGTTTGTCATACTAGTAGCTCATTATTCGGAGTCACCTAGTGCAG,9480 fluorescence intensity (a.u.)
13,CTGTGGTGGACTTCATTGTGATATACCATGTTTGAGGGTTCGGAGTCACCTAGTGCAG,9770 fluorescence intensity (a.u.)
14,CTCGGGCTGTTCTACTCCCCTTCGATGGCATCGTGGCTTCCGGAGTCACCTAGTGCAG,9470 fluorescence intensity (a.u.)
15,CCAAGCGCTCAATTTTTTTACTTACCCCTCATCTCTTTTGCGGAGTCACCTAGTGCAG,8660 fluorescence intensity (a.u.)
16,TCTCTTTTTTTTTCACCATGACCTTATCTGCTATTTTATACGGAGTCACCTAGTGCAG,14700 fluorescence intensity (a.u.)
17,CAGTGTATATTTCAGTGTATATTTGGTAGATTTGGTAGTACGGAGTCACCTAGTGCAG,8310 fluorescence intensity (a.u.)
18,CCTATATGTATTGTTGCAGCATCTCTACTCTCTACTACTTCGGAGTCACCTAGTGCAG,10000 fluorescence intensity (a.u.)
19,GGAAACGGCCGTGCGGCATGGATCTGGGCGGGAGGAGCAACGGAGTCACCTAGTGCAG,8930 fluorescence intensity (a.u.)
20,ACGTGTTTGACCATTCGTTTTATTCAAATCATTTAAGTAACGGAGTCACCTAGTGCAG,9230 fluorescence intensity (a.u.)
21,TCCACTCTATGTTCCACCACAACCCCTTCATTTCATGGTTCGGAGTCACCTAGTGCAG,8650 fluorescence intensity (a.u.)

row,Sequence,binding signal
1,GCACCGTACTGTGCACGTCATCCATTTGTCTGTTTGTGTTCGGAGTCACCTAGTGCAG,9380 fluorescence intensity (a.u.)
2,CCATATTTCGACTTCTAGCAGTACCATTCTTCCTCTGAAACGGAGTCACCTAGTGCAG,8400 fluorescence intensity (a.u.)
3,CCGAGATACCCGCCACCACTCCTCTCAGTTTCAATCTATACGGAGTCACCTAGTGCAG,8910 fluorescence intensity (a.u.)
4,TAGCGTTCAACGAATCGTCCCGCGTCGGATGTCTGTTTTTCGGAGTCACCTAGTGCAG,8870 fluorescence intensity (a.u.)
5,GTTTATTCCCTTGTGTTGGTTGTTGCACATGTCCCTTTCTCGGAGTCACCTAGTGCAG,8900 fluorescence intensity (a.u.)
6,CTGTTCTTGGTAGCATTGACCCTGCACCTTTTGTTCCATTCGGAGTCACCTAGTGCAG,9160 fluorescence intensity (a.u.)
7,ACGAACTAGAGCTACATACTTTACCCGTTTTTCCTCCTTACGGAGTCACCTAGTGCAG,10300 fluorescence intensity (a.u.)
8,ATGGTGGAGAGGGGAAAAAGCTAGGGTTTGCAAGAAGTTACGGAGTCACCTAGTGCAG,9620 fluorescence intensity (a.u.)
9,GGATAACACACATTAGCCCTGCCTCGCGTCATACTGAGTACGGAGTCACCTAGTGCAG,8540 fluorescence intensity (a.u.)
10,GCTATTTCTCTTTGCCAATCACTTCCCCTTTCTTTTGTGACGGAGTCACCTAGTGCAG,9240 fluorescence intensity (a.u.)
11,ATTTTCCACACTTTGGCCTGGTTTAGTTCCTAAATTTTTCCGGAGTCACCTAGTGCAG,11900 fluorescence intensity (a.u.)
12,CTCCACCCTATCGCGCCTTCTCTTCCATCGCCACGGCCCACGGAGTCACCTAGTGCAG,8850 fluorescence intensity (a.u.)
13,ATTGGTATTGCTGATGAACATTTTGGTGCTGTCGTACGACCGGAGTCACCTAGTGCAG,10600 fluorescence intensity (a.u.)
14,TTAGATCGAACGGTGATGGTATTGGCCCATGGGCCTCATTCGGAGTCACCTAGTGCAG,8590 fluorescence intensity (a.u.)
15,TTTTGATCATCCATTTTGTCTATTATCTGTGTCTAACTAACGGAGTCACCTAGTGCAG,8710 fluorescence intensity (a.u.)
16,TTTATGCGTGACTTACCTTTTTATTTATTTTCATATTTTTCGGAGTCACCTAGTGCAG,10500 fluorescence intensity (a.u.)
17,TGCCGCCGTTCTTGTCCGCCGCCGCTGCCCGACGCCAAATCGGAGTCACCTAGTGCAG,8140 fluorescence intensity (a.u.)
18,TCTCGATTCATGATTCTCTCTTTTATAGGTGCTGTCCTCTCGGAGTCACCTAGTGCAG,9000 fluorescence intensity (a.u.)
19,TCCACCGTTCTTCTCGTTCAATCGGCGGGCAACTGCTGTTCGGAGTCACCTAGTGCAG,8400 fluorescence intensity (a.u.)
20,GGTAATTTGTTTCTCCATCTTTCTTTCATTAGTGCTTGACCGGAGTCACCTAGTGCAG,12500 fluorescence intensity (a.u.)
21,GCGCTCATGGAGGGCTGGTTGAGGAGGGGATTGGGTGCTTCGGAGTCACCTAGTGCAG,9930 fluorescence intensity (a.u.)

# Some of the entries above, set out differently:
row	Sequence	binding signal
14	TTAGATCGAACGGTGATGGTATTGGCCCATGGGCCTCATTCGGAGTCACCTAGTGCAG	8590 fluorescence intensity (a.u.)
15	TTTTGATCATCCATTTTGTCTATTATCTGTGTCTAACTAACGGAGTCACCTAGTGCAG	8710 fluorescence intensity (a.u.)
16	TTTATGCGTGACTTACCTTTTTATTTATTTTCATATTTTTCGGAGTCACCTAGTGCAG	10500 fluorescence intensity (a.u.)
17	TGCCGCCGTTCTTGTCCGCCGCCGCTGCCCGACGCCAAATCGGAGTCACCTAGTGCAG	8140 fluorescence intensity (a.u.)
18	TCTCGATTCATGATTCTCTCTTTTATAGGTGCTGTCCTCTCGGAGTCACCTAGTGCAG	9000 fluorescence intensity (a.u.)
19	TCCACCGTTCTTCTCGTTCAATCGGCGGGCAACTGCTGTTCGGAGTCACCTAGTGCAG	8400 fluorescence intensity (a.u.)
20	GGTAATTTGTTTCTCCATCTTTCTTTCATTAGTGCTTGACCGGAGTCACCTAGTGCAG	12500 fluorescence intensity (a.u.)
